The source of these data is PMC10826034.

For the assay, the target named is T1, Serglycin (SRGN) (mouse (endogenous in microglia)) (UniProt P13609).
T1 sequence: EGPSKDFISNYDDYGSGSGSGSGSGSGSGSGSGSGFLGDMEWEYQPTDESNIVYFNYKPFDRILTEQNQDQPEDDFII
Kind of assay: co-IP; 500 ug proteins with 1 ug anti-SRGN antibody or normal mouse IgG overnight at 4 °C, then protein A/G agarose beads at 4 °C for 2 h; three washes; western blotting; microglia in vitro.

No constants are given. Whether binding was seen depends on the method and setting. Binding seen in cells or lysates may run through a third protein. Some binding calls cover weakened binding; strength is not graded here.

B1: CD44 (receptor, UniProt P15379 23-778)
chain: QIDLNVTCRYAGVFHVEKNGRYSISRTEAADLCQAFNSTLPTMDQMKLALSKGFETCRYGFIEGNVVIPRIHPNAICAANHTGVYILVTSNTSHYDTYCFNASAPPEEDCTSVTDLPNSFDGPVTITIVNRDGTRYSKKGEYRTHQEDIDASNIIDDDVSSGSTIEKSTPEGYILHTYLPTEQPTGDQDDSFFIRSTLATIASTVHSKSHAAAQKQNNWIWSWFGNSQSTTQTQEPTTSATTALMTTPETPPKRQEAQNWFSWLFQPSESKSHLHTTTKMPGTESNTNPTGWEPNEENEDETDTYPSFSGSGIDDDEDFISSTIATTPRVSARTEDNQDWTQWKPNHSNPEVLLQTTTRMADIDRISTSAHGENWTPEPQPPFNNHEYQDEEETPHATSTTPNSTAEAAATQQETWFQNGWQGKNPPTPSEDSHVTEGTTASAHNNHPSQRITTQSQEDVSWTDFFDPISHPMGQGHQTESKDTDSSHSTTLQPTAAPNTHLVEDLNRTGPLSVTTPQSHSQNFSTLHGEPEEDENYPTTSILPSSTKSSAKDARRGGSLPTDTTTSVEGYTFQYPDTMENGTLFPVTPAKTEVFGETEVTLATDSNVNVDGSLPGDRDSSKDSRGSSRTVTHGSELAGHSSANQDSGVTTTSGPMRRPQIPEWLIILASLLALALILAVCIAVNSRRRCGQKKKLVINGGNGTVEDRKPSELNGEASKSQEMVHLVNKEPSETPDQCMTADETRNLQSVDMKIGV
Regarding B1, the binding entry is reported as “binds”.
